The chains behind the UniProt entries cited, without tags or fusion partners. Residues count along the entry.
UniProt P02768, 25-609: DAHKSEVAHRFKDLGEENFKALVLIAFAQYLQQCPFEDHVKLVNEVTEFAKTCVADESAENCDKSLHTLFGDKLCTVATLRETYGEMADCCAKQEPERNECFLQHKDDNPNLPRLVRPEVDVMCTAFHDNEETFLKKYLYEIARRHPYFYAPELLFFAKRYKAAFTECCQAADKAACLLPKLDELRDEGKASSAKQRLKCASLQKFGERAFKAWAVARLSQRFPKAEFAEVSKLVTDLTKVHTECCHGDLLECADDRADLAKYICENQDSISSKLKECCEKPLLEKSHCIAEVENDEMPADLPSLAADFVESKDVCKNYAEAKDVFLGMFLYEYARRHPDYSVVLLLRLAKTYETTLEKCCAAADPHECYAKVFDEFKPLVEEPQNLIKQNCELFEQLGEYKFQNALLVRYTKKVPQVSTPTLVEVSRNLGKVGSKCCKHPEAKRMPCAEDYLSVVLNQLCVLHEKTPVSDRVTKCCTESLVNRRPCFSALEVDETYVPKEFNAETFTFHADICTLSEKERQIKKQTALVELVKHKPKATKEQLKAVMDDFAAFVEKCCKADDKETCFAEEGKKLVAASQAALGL

In patent US20060019410A1, “Apparatus, kits and methods for evaluating binding interactions, for detecting and quantifying binding molecules, and for sample preparation” (Qualyst, Inc., priority 2004, published 2006):

Columns and labels:
[1] = target: T1, HSA (Homo sapiens, UniProt P02768); assay: percent recovery from HSA with the 96-well ACCUPRO DCC device; assay type: in vitro ADME
Protocol: Chemical Analysis. […] For a given sample, the peak areas of the particular drug and its internal standard are measured and a ratio of these two values is determined. The peak area ratio (PAR) of the (+) DCC-extracted sample is divided by its corresponding (−) DCC extracted sample PAR to determine a percent recovery value. This recovery value is not a % HSA bound value.
Preparation of DCC plate. Prepare a DCC filter plate with 5 mg and 10 mg bed sizes as described in Example 1 and 3.
Set-Up of Incubation Study.

[2] = target: T1, HSA; details: 1 μM drug + 1 μM DS in HSA; 10 mg DCC bed

Compound: COc1ccc2cc([C@H](C)C(=O)O)ccc2c1 [Naproxen]
- percent recovery (relative ranking) ([1]; HSA, naproxen versus ketorolac): higher percent recovery
- percent recovery from HSA ([1]; drug at 1 μM, 5 mg and 10 mg DCC bed, compared with the usual concentrations (217 μM and 0.5 μM)): comparable to values obtained above
- DS (dansylsarcosine) PAR in final sample preparation [2]: lower level
